# Source: the supplement of paper PMC8728848
# This is one part of the list.
# B1: GS7807F-bth-514-18-514 (Bacteroides thetaiotaomicron) (protein)
# chain: AGSCTGNFEEYNTNQFQIHEADPSTLMKSMIETIVNIQQNDSQMMDQMVGQLGGYLTCANVWSGTNFGTFNQSDAWNAGPWNTNFEKIYGNFFQIQEATNESGHYYAFARMIRAITMLRVADCYGPMPYSQVKKGNFYVAYDTEEQVYKNIMEDFASAANVLYNYYKDTNGNAPLASNDPVFSGNYANWARLANSMRLRVAIRISTAYPEMAKENAEAAASHEAGLIEANNDNAMMDCGSQTNPYQLAAVSWGDLRVNANIVDYMNGYGDPRMSKYFNHSTFTGHTQEYVGMRSGEDGFAKSDVAGYSIPAITGTSKLLVFCAAETAFLRAEGKLKNWSVGNKSAKEYYEEGIKLSMEQYGTTMPDNYLTNTEKPTVSHNNDPRGHAYTISNTVAVAWNDNNEEENLQRIITQKWIANYPLGLEAWAEYRRTGYPELYPCIDNLSPSGVDSKRGMRRLRFPYTEVQNNHSNYQQGVSYLKNGGPDNEATDLSWGKTN
# Legend:
# Experiment in all cases: glycan array binding signal (z-score within array); higher = stronger binding
# Settings in all cases: glycan notation: IUPAC condensed, linker removed
# Gal6S(b1-4)Glc6S = target: Gal6S(b1-4)Glc6S
# Outline: (§1)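 Glycan array data came from 3228 arrays in the Consortium for Functional Glycomics database, and only arrays with an available protein sequence were kept. Glycan names were put into IUPAC-condensed notation, and columns mapping to the same glycan were averaged. The binding signal is a within-array Z-score, averaged across arrays of one protein sequence run at different concentrations or buffers and across linkers. A negative Z-score can be read as non-binding.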
# Gal6S(b1-4)GlcNAc = target: Gal6S(b1-4)GlcNAc
# Outline: as §1
# Gal6S(b1-4)GlcNAc6S = target: Gal6S(b1-4)GlcNAc6S
# Outline: as §1
# GalNAc(a1-3)Gal = target: GalNAc(a1-3)Gal
# Outline: as §1
# GalNAc(a1-3)GalNAc = target: GalNAc(a1-3)GalNAc
# Outline: as §1
# [1] = target: GalNAc(a1-3)GalNAc(b1-3)Gal(a1-4)Gal(b1-4)Glc
# Outline: as §1
# [2] = target: GalNAc(a1-3)GalNAc(b1-3)Gal(a1-4)Gal(b1-4)GlcNAc
# Outline: as §1
# GalNAc(b1-3)Gal = target: GalNAc(b1-3)Gal
# Outline: as §1
# [3] = target: GalNAc(b1-3)Gal(a1-4)Gal(b1-4)GlcNAc
# Outline: as §1
# [4] = target: GalNAc(b1-3)Gal(a1-4)Gal(b1-4)GlcNAc(b1-3)Gal(b1-4)Glc
# Outline: as §1
# [5] = target: GalNAc(b1-3)Gal(a1-6)Gal(b1-4)Glc
# Outline: as §1
# GalNAc(b1-3)GalNAc = target: GalNAc(b1-3)GalNAc
# Outline: as §1
# GalNAc(b1-3)GlcNAc = target: GalNAc(b1-3)GlcNAc
# Outline: as §1
# GalNAc(b1-4)Gal(b1-4)Glc = target: GalNAc(b1-4)Gal(b1-4)Glc
# Outline: as §1
# GalNAc(b1-4)GlcNAc = target: GalNAc(b1-4)GlcNAc
# Outline: as §1
# [6] = target: GalNAc(b1-4)GlcNAc(b1-2)Man
# Outline: as §1
# [7] = target: GalNAc(b1-4)GlcNAc(b1-2)Man(a1-3)[GalNAc(b1-4)GlcNAc(b1-2)Man(a1-6)]Man(b1-4)GlcNAc(b1-4)GlcNAc
# Outline: as §1
# [8] = target: GalNAc(b1-4)GlcNAc(b1-3)GalNAc(b1-4)GlcNAc
# Outline: as §1
# GalNAc(b1-4)GlcNAc6S = target: GalNAc(b1-4)GlcNAc6S
# Outline: as §1
# GalNAc(b1-6)GalNAc = target: GalNAc(b1-6)GalNAc
# Outline: as §1
# GalNAc3S(b1-4)GlcNAc = target: GalNAc3S(b1-4)GlcNAc
# Outline: as §1
# GalNAc3S(b1-4)GlcNAc3S = target: GalNAc3S(b1-4)GlcNAc3S
# Outline: as §1
# [9] = target: GalNAc3S(b1-4)[Fuc(a1-3)]GlcNAc
# Outline: as §1
# GalNAc4S6S(b1-4)GlcNAc = target: GalNAc4S6S(b1-4)GlcNAc
# Outline: as §1
# GalNAc6S(b1-4)GlcNAc = target: GalNAc6S(b1-4)GlcNAc
# Outline: as §1
# Glc(a1-4)Glc = target: Glc(a1-4)Glc
# Outline: as §1
# [10] = target: Glc(a1-4)Glc(a1-4)Glc(a1-4)Glc
# Outline: as §1
# Glc(a1-6)Glc(a1-6)Glc = target: Glc(a1-6)Glc(a1-6)Glc
# Outline: as §1
# [11] = target: Glc(a1-6)Glc(a1-6)Glc(a1-6)Glc
# Outline: as §1
# Glc(b1-4)Glc = target: Glc(b1-4)Glc
# Outline: as §1
# Glc(b1-6)Glc = target: Glc(b1-6)Glc
# Outline: as §1
# GlcA(b1-3)Gal = target: GlcA(b1-3)Gal
# Outline: as §1
# GlcA(b1-3)GlcNAc = target: GlcA(b1-3)GlcNAc
# Outline: as §1
# GlcA(b1-6)Gal = target: GlcA(b1-6)Gal
# Outline: as §1
# [12] = target: GlcA3S(b1-3)Gal(b1-4)GlcNAc(b1-2)Man
# Outline: as §1
# [13] = target: GlcA3S(b1-3)Gal(b1-4)GlcNAc(b1-3)Gal(b1-4)Glc
# Outline: as §1
# [14] = target: GlcNAc(a1-3)Gal(b1-4)GlcNAc
# Outline: as §1
binder,measurement,setting,value
B1,glycan array binding signal (z-score),Gal6S(b1-4)Glc6S,0.513
same,glycan array binding signal (z-score),Gal6S(b1-4)GlcNAc,0.547
same,glycan array binding signal (z-score),Gal6S(b1-4)GlcNAc6S,0.008
same,glycan array binding signal (z-score),GalNAc(a1-3)Gal,0.338
same,glycan array binding signal (z-score),GalNAc(a1-3)GalNAc,0.13
same,glycan array binding signal (z-score),[1],0.618
same,glycan array binding signal (z-score),[2],0.982
same,glycan array binding signal (z-score),GalNAc(b1-3)Gal,-0.359
same,glycan array binding signal (z-score),[3],1.86
same,glycan array binding signal (z-score),[4],1.81
same,glycan array binding signal (z-score),[5],0.774
same,glycan array binding signal (z-score),GalNAc(b1-3)GalNAc,-0.68
same,glycan array binding signal (z-score),GalNAc(b1-3)GlcNAc,-0.179
same,glycan array binding signal (z-score),GalNAc(b1-4)Gal(b1-4)Glc,0.27
same,glycan array binding signal (z-score),GalNAc(b1-4)GlcNAc,1.66
same,glycan array binding signal (z-score),[6],-0.675
same,glycan array binding signal (z-score),[7],-0.383
same,glycan array binding signal (z-score),[8],0.017
same,glycan array binding signal (z-score),GalNAc(b1-4)GlcNAc6S,0.521
same,glycan array binding signal (z-score),GalNAc(b1-6)GalNAc,-0.841
same,glycan array binding signal (z-score),GalNAc3S(b1-4)GlcNAc,-0.814
same,glycan array binding signal (z-score),GalNAc3S(b1-4)GlcNAc3S,-0.834
same,glycan array binding signal (z-score),[9],0.749
same,glycan array binding signal (z-score),GalNAc4S6S(b1-4)GlcNAc,-0.849
same,glycan array binding signal (z-score),GalNAc6S(b1-4)GlcNAc,-0.256
same,glycan array binding signal (z-score),Glc(a1-4)Glc,-0.674
same,glycan array binding signal (z-score),[10],-0.429
same,glycan array binding signal (z-score),Glc(a1-6)Glc(a1-6)Glc,-0.912
same,glycan array binding signal (z-score),[11],-0.652
same,glycan array binding signal (z-score),Glc(b1-4)Glc,-0.68
same,glycan array binding signal (z-score),Glc(b1-6)Glc,-0.876
same,glycan array binding signal (z-score),GlcA(b1-3)Gal,0.37
same,glycan array binding signal (z-score),GlcA(b1-3)GlcNAc,-0.624
same,glycan array binding signal (z-score),GlcA(b1-6)Gal,0.611
same,glycan array binding signal (z-score),[12],-0.771
same,glycan array binding signal (z-score),[13],-0.835
same,glycan array binding signal (z-score),[14],-0.915

# A different layout for some results above:
binder	measurement	setting	value
B1	glycan array binding signal (z-score)	Gal6S(b1-4)GlcNAc6S	0.008
same	glycan array binding signal (z-score)	GalNAc(a1-3)Gal	0.338
